The list is a part of this screen's results and no random one: it covers a few groups of compounds. Not every dose and run of a compound is shown. T/C is the treated group as % of the vehicle group. Some T/C values are marked as having no survivor count here; that says nothing about deaths at the dose. Schedules are NCI's codes, read here as Q, the interval in days (D) or hours (H), X, the number of doses. Some doses have a count of surviving animals in place of a T/C: the source files T/C as zero there, which appears to mark a toxic dose or a test without result, not a measured value. Counts of survivors are from the toxicity check (mostly the fifth day) where no day follows; animals may have died later. Some entries were tested several times; the values are given in rising order. For survival time, the PubChem record calls one and a half times the control and up active, and a quarter to a half above the control has no call in these data; cut-offs in other NCI protocols can differ. Some T/C values are followed by the survivors on the day toxicity was checked, most often the fifth; where neither a count nor a note follows, no animal had died by that day.
System: BDF1 mice, s.c. Lewis lung carcinoma, T/C %
Assay: NCI In Vivo Anticancer Drug Screen. Data for tumor model Lewis Lung Carcinoma (subcutaneous) in B6D2F1 (BDF1) mice
Description: The antitumor activity of compounds was measured in mice bearing transplantable tumors. Survival or tumor size were measured and the results are expressed as the measurement made in the treated group (T) divided by the measurement made in the vehicle treated control group (C). The tumor model used in this assay is Lewis Lung Carcinoma (subcutaneous) in B6D2F1 (BDF1) mice

[1] = T/C endpoint: mean tumor weight, dose: 2.0 mg/kg/injection, schedule: Q01DX011 (ip), vehicle: saline, evaluation day not shown, higher T/C = larger tumour
[2] = T/C endpoint: mean tumor weight, dose: 4.0 mg/kg/injection, schedule: Q01DX011 (ip), vehicle: saline, evaluation day not shown, higher T/C = larger tumour
[3] = T/C endpoint: median survival time, dose: 1.56 mg/kg/injection, schedule: Q01DX009 (ip), vehicle: Klucel (hydroxypropylcellulose) (HPC), higher T/C = longer survival
[4] = T/C endpoint: median survival time, dose: 3.12 mg/kg/injection, schedule: Q01DX009 (ip), vehicle: Klucel (hydroxypropylcellulose) (HPC), higher T/C = longer survival

O=C(O)CN(CCCl)CCCl was tested. Which T/C (T/C endpoint: mean tumor weight, dose: 1.0 mg/kg/injection, schedule: Q01DX011 (ip), vehicle: saline, evaluation day not shown, higher T/C = larger tumour) did it give?
Its T/C is 54 % of control [survivor count not shown].

What about the T/C [1] of the same molecule?
The T/C was 53 % of control [survivor count not shown].

And the T/C [2]?
The T/C was 28 % of control [survivor count not shown].

Which results are given for Cc1ccc(C(=O)O)cc1N(CCCl)CCCl?
T/C [3]: 102 [survivor count not shown], 113 [survivor count not shown], 187 % of control [survivor count not shown]; T/C [4]: 102 % of control [survivor count not shown]; T/C (T/C endpoint: median survival time, dose: 3.13 mg/kg/injection, schedule: Q01DX009 (ip), vehicle: Klucel (hydroxypropylcellulose) (HPC), higher T/C = longer survival): 99 % of control [survivor count not shown]; T/C (T/C endpoint: median survival time, dose: 6.25 mg/kg/injection, schedule: Q01DX009 (ip), vehicle: Klucel (hydroxypropylcellulose) (HPC), higher T/C = longer survival): 100 [survivor count not shown], 103 [survivor count not shown], 187 % of control [survivor count not shown]; T/C (T/C endpoint: median survival time, dose: 12.5 mg/kg/injection, schedule: Q01DX009 (ip), vehicle: Klucel (hydroxypropylcellulose) (HPC), higher T/C = longer survival): 187 % of control [survivor count not shown]

What does the source list for COc1cccc(N(CCCl)CCCl)c1OC?
T/C (T/C endpoint: mean tumor weight, dose: 7.5 mg/kg/injection, schedule: Q01DX011 (ip), vehicle: saline, evaluation day not shown, higher T/C = larger tumour): 61 % of control [survivor count not shown]; T/C (T/C endpoint: mean tumor weight, dose: 15.0 mg/kg/injection, schedule: Q01DX011 (ip), vehicle: saline, evaluation day not shown, higher T/C = larger tumour): 70 % of control [survivor count not shown]; T/C (T/C endpoint: mean tumor weight, dose: 60.0 mg/kg/injection, schedule: Q01DX011 (ip), vehicle: saline, evaluation day not shown, higher T/C = larger tumour): 47 % of control [survivor count not shown]

O=C(O)C(=O)Cc1ccc(N(CCCl)CCCl)cc1 was tested. Which T/C (T/C endpoint: mean tumor weight, dose: 3.0 mg/kg/injection, schedule: Q01DX011 (ip), vehicle: other, evaluation day not shown, higher T/C = larger tumour) did it give?
The T/C was 86 % of control [survivor count not shown].

And the T/C (T/C endpoint: mean tumor weight, dose: 6.0 mg/kg/injection, schedule: Q01DX011 (ip), vehicle: other, evaluation day not shown, higher T/C = larger tumour)?
The T/C was 52 % of control [survivor count not shown].

What about the T/C (T/C endpoint: mean tumor weight, dose: 12.0 mg/kg/injection, schedule: Q01DX011 (ip), vehicle: other, evaluation day not shown, higher T/C = larger tumour) of the same molecule?
Its T/C is 32 % of control [survivor count not shown].

Which T/C (T/C endpoint: mean tumor weight, dose: 0.5 mg/kg/injection, schedule: Q01DX011 (ip), vehicle: other, evaluation day not shown, higher T/C = larger tumour) does the source give for O=C(O)CCc1ccc(CN(CCCl)CCCl)cc1 here?
The T/C was 37 % of control [survivor count not shown].

For O=C(CCN(CCCl)CCCl)c1cccc([N+](=O)[O-])c1, which T/C (T/C endpoint: median survival time, dose: 3.0 mg/kg/injection, schedule: Q01DX009 (ip), vehicle: Klucel (hydroxypropylcellulose) (HPC), higher T/C = longer survival) is on record?
The T/C was 109 % of control [survivor count not shown].

And the T/C (T/C endpoint: median survival time, dose: 6.0 mg/kg/injection, schedule: Q01DX009 (ip), vehicle: Klucel (hydroxypropylcellulose) (HPC), higher T/C = longer survival)?
The T/C was 109 % of control [survivor count not shown].

How did the T/C (T/C endpoint: median survival time, dose: 3.0 mg/kg/injection, schedule: Q01DX009 (ip), vehicle: saline with Tween-80, higher T/C = longer survival) turn out when BrCCN(CCBr)c1ccc2c(c1)Cc1ccccc1-2 was run?
Its T/C is 120 % of control [survivor count not shown].

What about the T/C (T/C endpoint: median survival time, dose: 6.0 mg/kg/injection, schedule: Q01DX009 (ip), vehicle: saline with Tween-80, higher T/C = longer survival) of the same molecule?
The T/C was 97 % of control [survivor count not shown].

And the T/C (T/C endpoint: median survival time, dose: 12.0 mg/kg/injection, schedule: Q01DX009 (ip), vehicle: saline with Tween-80, higher T/C = longer survival)?
Its T/C is 95 % of control [survivor count not shown].

And the T/C (T/C endpoint: median survival time, dose: 24.0 mg/kg/injection, schedule: Q01DX009 (ip), vehicle: saline with Tween-80, higher T/C = longer survival)?
Its T/C is 112 % of control [survivor count not shown].

And the T/C (T/C endpoint: median survival time, dose: 48.0 mg/kg/injection, schedule: Q01DX009 (ip), vehicle: saline with Tween-80, higher T/C = longer survival)?
The T/C was 101 % of control [survivor count not shown].

How did the T/C [1] turn out when CC(C(=O)O)N(CCCl)CCCl (stereo not given) was run?
Its T/C is 87 % of control [survivor count not shown].

And the T/C [2]?
Its T/C is 76 % of control [survivor count not shown].

Which T/C (T/C endpoint: median survival time, dose: 0.19 mg/kg/injection, schedule: Q01DX009 (ip), vehicle: Klucel (hydroxypropylcellulose) (HPC), higher T/C = longer survival) does the source give for CC1(C)NC(=O)N(CCN(CCCl)CCCl)C1=O here?
Its T/C is 107 % of control [survivor count not shown].

What about the T/C (T/C endpoint: median survival time, dose: 0.39 mg/kg/injection, schedule: Q01DX009 (ip), vehicle: Klucel (hydroxypropylcellulose) (HPC), higher T/C = longer survival) of the same molecule?
Its T/C is 165 % of control [survivor count not shown].

And the T/C (T/C endpoint: median survival time, dose: 0.78 mg/kg/injection, schedule: Q01DX009 (ip), vehicle: Klucel (hydroxypropylcellulose) (HPC), higher T/C = longer survival)?
Its T/C is 89 [survivor count not shown] and 114 % of control [survivor count not shown].

What about the T/C [3] of the same molecule?
The T/C was 93 [survivor count not shown] and 140 % of control [survivor count not shown].

What about the T/C [4] of the same molecule?
Its T/C is 102 [survivor count not shown] and 180 % of control [survivor count not shown].

Which results are given for COc1ccc(C(=O)O)cc1N(CCCl)CCCl?
T/C (T/C endpoint: median survival time, dose: 0.06 mg/kg/injection, schedule: Q01DX009 (ip), vehicle: Klucel (hydroxypropylcellulose) (HPC), higher T/C = longer survival): 96 % of control [survivor count not shown]; T/C (T/C endpoint: median survival time, dose: 0.12 mg/kg/injection, schedule: Q01DX009 (ip), vehicle: Klucel (hydroxypropylcellulose) (HPC), higher T/C = longer survival): 109 % of control [survivor count not shown]; T/C (T/C endpoint: median survival time, dose: 0.25 mg/kg/injection, schedule: Q01DX009 (ip), vehicle: Klucel (hydroxypropylcellulose) (HPC), higher T/C = longer survival): 100 % of control [survivor count not shown]; T/C (T/C endpoint: median survival time, dose: 0.5 mg/kg/injection, schedule: Q01DX009 (ip), vehicle: Klucel (hydroxypropylcellulose) (HPC), higher T/C = longer survival): 89 % of control [survivor count not shown]; T/C (T/C endpoint: median survival time, dose: 1.0 mg/kg/injection, schedule: Q01DX009 (ip), vehicle: Klucel (hydroxypropylcellulose) (HPC), higher T/C = longer survival): 110 % of control [survivor count not shown]; T/C (T/C endpoint: median survival time, dose: 2.0 mg/kg/injection, schedule: Q01DX009 (ip), vehicle: Klucel (hydroxypropylcellulose) (HPC), higher T/C = longer survival): 103 % of control [survivor count not shown]; T/C (T/C endpoint: median survival time, dose: 4.0 mg/kg/injection, schedule: Q01DX009 (ip), vehicle: Klucel (hydroxypropylcellulose) (HPC), higher T/C = longer survival): 100 % of control [survivor count not shown]

NC1CCCCC1.NP(=O)(O)N(CCCl)CCCl was tested. Which T/C (T/C endpoint: median survival time, dose: 50.0 mg/kg/injection, schedule: Q01DX001 (ip), vehicle: water, evaluated on day 49, higher T/C = longer survival) did it give?
The T/C was 108 % of control.

And the T/C (T/C endpoint: median survival time, dose: 50.0 mg/kg/injection, schedule: Q01DX001 (ip), vehicle: water, evaluated on day 60, higher T/C = longer survival)?
The T/C was 109 % of control.

What about the T/C (T/C endpoint: median survival time, dose: 100.0 mg/kg/injection, schedule: Q01DX001 (ip), vehicle: water, evaluated on day 49, higher T/C = longer survival) of the same molecule?
The T/C was 137 % of control.

And the T/C (T/C endpoint: median survival time, dose: 100.0 mg/kg/injection, schedule: Q01DX001 (ip), vehicle: water, evaluated on day 60, higher T/C = longer survival)?
The T/C was 138 % of control.

What about the T/C (T/C endpoint: median survival time, dose: 200.0 mg/kg/injection, schedule: Q01DX001 (ip), vehicle: water, evaluated on day 49, higher T/C = longer survival) of the same molecule?
Its T/C is 145 % of control [7 of 10 alive on day 49].

And the T/C (T/C endpoint: median survival time, dose: 200.0 mg/kg/injection, schedule: Q01DX001 (ip), vehicle: water, evaluated on day 60, higher T/C = longer survival)?
Its T/C is 154 % of control.

And the survivor count (T/C endpoint: median survival time, dose: 400.0 mg/kg/injection, schedule: Q01DX001 (ip), vehicle: water, higher T/C = longer survival)?
The survivor count was 0 of 10 on day 49 and 3 of 10.

And the survivor count (T/C endpoint: median survival time, dose: 800.0 mg/kg/injection, schedule: Q01DX001 (ip), vehicle: water, higher T/C = longer survival)?
The survivor count was 0 of 10 and 0 of 10 on day 49.

How did the T/C (T/C endpoint: mean tumor weight, dose: 0.3 mg/kg/injection, schedule: Q01DX011 (ip), vehicle: water, evaluation day not shown, higher T/C = larger tumour) turn out when O[C@@H](CNCCCl)[C@@H](O)CNCCCl was run?
The T/C was 63 % of control [survivor count not shown].

What about the T/C (T/C endpoint: mean tumor weight, dose: 0.6 mg/kg/injection, schedule: Q01DX011 (ip), vehicle: water, evaluation day not shown, higher T/C = larger tumour) of the same molecule?
The T/C was 78 % of control [survivor count not shown].

What about the T/C (T/C endpoint: mean tumor weight, dose: 1.2 mg/kg/injection, schedule: Q01DX011 (ip), vehicle: water, evaluation day not shown, higher T/C = larger tumour) of the same molecule?
The T/C was 121 % of control [survivor count not shown].

And the T/C (T/C endpoint: mean tumor weight, dose: 2.5 mg/kg/injection, schedule: Q01DX011 (ip), vehicle: saline, evaluation day not shown, higher T/C = larger tumour)?
The T/C was 53 % of control [survivor count not shown].

What about the T/C (T/C endpoint: mean tumor weight, dose: 2.5 mg/kg/injection, schedule: Q01DX011 (ip), vehicle: water, evaluation day not shown, higher T/C = larger tumour) of the same molecule?
The T/C was 79 % of control [survivor count not shown].

What about the T/C (T/C endpoint: mean tumor weight, dose: 5.0 mg/kg/injection, schedule: Q01DX011 (ip), vehicle: saline, evaluation day not shown, higher T/C = larger tumour) of the same molecule?
Its T/C is 44 % of control [survivor count not shown].

And the T/C (T/C endpoint: mean tumor weight, dose: 10.0 mg/kg/injection, schedule: Q01DX011 (ip), vehicle: saline, evaluation day not shown, higher T/C = larger tumour)?
Its T/C is 11 % of control [survivor count not shown].

What does the source list for COc1cc(CN(CCCl)CCBr)cc(OC)c1?
T/C (T/C endpoint: median survival time, dose: 0.75 mg/kg/injection, schedule: Q01DX009 (ip), vehicle: saline, higher T/C = longer survival): 125 % of control [survivor count not shown]; T/C (T/C endpoint: median survival time, dose: 1.5 mg/kg/injection, schedule: Q01DX009 (ip), vehicle: saline, higher T/C = longer survival): 96 % of control [survivor count not shown]; T/C (T/C endpoint: median survival time, dose: 3.0 mg/kg/injection, schedule: Q01DX009 (ip), vehicle: saline, higher T/C = longer survival): 124 % of control [survivor count not shown]; T/C (T/C endpoint: median survival time, dose: 6.0 mg/kg/injection, schedule: Q01DX009 (ip), vehicle: saline, higher T/C = longer survival): 107 % of control [survivor count not shown]

— PubChem BioAssay AID270 (DTP/NCI, 2004)
